The text below walks through data of patent publication US4033721A, “Analysis of gentian violet residue in tissue” (priority 1976, dated 1977).

The structures appear in SMILES notation. Bounds are passed on as bounds.

Data set [1] can be described thus: Detection of 14C-gentian violet in spiked chick liver samples (Example 27).
Data set [2] can be described thus: Extraction of gentian violet residue from eggs or tissue.

Turning to `CN(C)c1ccc(C(=C2C=CC(=[N+](C)C)C=C2)c2ccc(N(C)C)cc2)cc1` [^14 C-gentian violet], the “Mean dpm/Sample” value in data set [1] (2.7 dpm added (13.7 dpm/g)) worked out at 55.4 dpm/Sample; in data set [1] (10 dpm added (50.7 dpm/g)), 65.5 dpm/Sample; in data set [1] (20 dpm added (97 dpm/g)), 82.2 dpm/Sample; in data set [1] (50 dpm added (266 dpm/g)), 114.8 dpm/Sample; in data set [1] (100 dpm added (522 dpm/g)), 201.0 dpm/Sample. Besides, the Mean dpm/g in data set [1] (2.7 dpm added (13.7 dpm/g)) turned out to be 283 dpm/g; in data set [1] (10 dpm added (50.7 dpm/g)), 331 dpm/g; in data set [1] (20 dpm added (97 dpm/g)), 400 dpm/g; in data set [1] (50 dpm added (266 dpm/g)) it was 608 dpm/g; in data set [1] (100 dpm added (522 dpm/g)), 1049 dpm/g. For the same molecule, the detection limit entry in data set [1] (95 percent confidence limits) is reported as “above 4 ppb”.

Turning to `CN(C)c1ccc(C(=C2C=CC(=[N+](C)C)C=C2)c2ccc(N(C)C)cc2)cc1` [gentian violet, hexamethylpararosaniline chloride], in data set [2], the “extraction of gentian violet residue by acidified alcohol” value is ≥ 99% and the “extraction of gentian violet residue by straight ethanol” value was “at most 50%”.
